Reference: the supplement of paper PMC5407854, “Inhibitor of ppGalNAc-T3-mediated O-glycosylation blocks cancer cell invasiveness and lowers FGF23 levels” (eLife, 2017)
Over roughly 1,700 compounds, “T3 sensor activation Q score (MG/GFP ratio z-score vs DMSO controls)” has its median near 0.25; the highest 2% begin near 1.9. This is one part of the list.

What follows are molecules tested on ppGalNAc-T3 sensor (assay: T3 sensor activation Q score (MG/GFP ratio z-score vs DMSO controls) (SD units); higher = more sensor activation (inhibition of ppGalNAc-T3 glycosylation)). Conditions: HEK293 sensor cells; 10 µM; 6 h.
Description: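 Cells were treated with compound at 10 uM for 6 h, then MG/GFP ratio was read by flow cytometry (10,000 cells per well, duplicate wells). Q = (R - R_neg)/SD_neg relative to DMSO vehicle controls; the signal rises when the glycosyltransferase is inhibited.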

Point of comparison: `COc1ccc2nc3cc(Cl)ccc3c(Nc3cc(C(C)C)c(O)cc3C)c2c1`, “T3 sensor activation Q score” value 0.65. Against it:
- COc1c2occc2cc2ccc(=O)oc12 — higher, 0.85
- Cn1ncc2c(=O)[nH]c(N)nc21 — higher, 1.6
- CC(C)=C(c1ccc(Cl)cc1)c1c(N)ncnc1N — lower, -0.25
- COc1cc2c(cc1OC)[N+]([O-])=C(c1ccccc1)C2=O — higher, 0.9
- Cn1cnc([N+](=O)[O-])c1Sc1nnc(-c2cccnc2)n1C — lower, -0.4
- COc1ccccc1N=NNc1ccccc1OC — lower, -0.1
- N#Cc1ccc(C(c2ccc(C#N)cc2)n2cncn2)cc1 — lower, 0.15
- NC(=O)c1ccc2c(c1)S(=O)(=O)c1ccccc1C2=O — higher, 1.25
- COC(=O)Cc1[nH]c(Cl)nc1C(N)=O — lower, -1.15
- CC1=C(C#N)C(C)(C)C(C#N)=C(C)N1 — higher, 1.5
- COc1ccc(C(=O)Oc2ccc[nH]c2=O)cc1 — lower, -0.9
- O=C(O)c1ccc(O)c(O)c1 — lower, -0.75
- CCCCCCCCCCCCC(NC(C)=O)(C(=O)OCC)C(=O)OCC — lower, 0.1
- CCN(CC)CCNC(=O)C(Cl)=C1C(Cl)=C(Cl)C(Cl)=C1Cl — lower, -0.2
- CCOC(=O)c1cc2c(OC)c(OC)ccc2c2[nH]cc(C#N)c(=O)c12 — higher, 0.7
- O=C(O)/C=C/C(=O)N1Cc2cc3ccccc3nc2C1 — lower, -0.05
- Cn1c(=O)c2[nH]c(CNc3ccc(C(=O)O)cc3)nc2n(C)c1=O — lower, -0.05
- Cc1cnc(SCc2ccc(Cl)cc2Cl)[nH]c1=O — lower, -0.3
- CC(=O)C1C=CC(C)(C(=O)O)C2C=C(C)C(=O)C(C)(O)C12 (stereo not given) — higher, 1.45
- Nc1cc([N+](=O)[O-])ccc1Nc1ccc(O)cc1 — higher, 0.9
- COc1c(O)ccc2c1CN1CCc3cc4c(cc3C1C2)OCO4 (stereo not given) — lower, 0.1
- Nc1ccc(/C=C/c2ccc3ncccc3c2)cc1 — lower, 0.55
- O=C(O)c1nc2nc(Cl)c(Cl)nc2[nH]1 — lower, 0.1
- Cc1[nH]ccc2c1[nH]c1cc(=O)ccc12 — lower, -0.35
- Cn1c(CO)cnc1-c1ccccc1 — lower, 0.3
- CC1(C)C2CCC(CN=C(N)CSS(=O)(=O)O)C1C2 (stereo not given) — higher, 1.1
- CC1=NCC(C)c2ccccc21 (stereo not given) — higher, 1.3
- COc1cc2oc3cc(C)oc(=O)c3c2cc1OC — lower, -0.8
- COc1cc(C(=O)c2cocc2C(=O)c2ccc3c(c2)OCO3)cc(OC)c1OC — lower, 0.55
- Nc1ccc(SCc2nc3cccc4c3n2CCC4)cc1 — lower, -0.1
- COc1cccc2nc3cc(C)c(C)cc3nc12 — lower, 0.25
- CCN1CCC(Nc2ccnc3cc(Cl)ccc23)CC1 — higher, 1.3
- CC(=O)Nc1ccc(OCCOc2ccc([N+](=O)[O-])cc2)cc1 — higher, 1.6
- O=c1cc(-c2ccccc2)nc2cc(-c3ccco3)[nH]n12 — lower, 0.35
- CN(C)c1ccc(C(c2ccc(N(C)C)cc2)c2ccc([N+](=O)[O-])cc2)cc1 — lower, 0.2
- COc1ccc2c3c([nH]c2c1)[C@H]1C[C@H]2[C@H](C[C@@H](O)[C@H](OC)[C@H]2C(=O)O)CN1CC3 — lower, -0.25
- CCCCC(=O)N(CCC)CCC — lower, 0.1
- NC(N)=NS(=O)(=O)c1ccc(N=C2C(=O)Nc3ccccc32)cc1 — lower, 0.3
- CCC(CO)Nc1nc2ccc(Cl)cc2c2ccccc12 (stereo not given) — higher, 0.85
- O=C(Nc1ccsn1)c1ccc(Cl)cc1Cl — lower, 0.55
- Cc1cc(=O)n2c3c(c4c(cc13)c(CN(C)C)cc(=O)n4C)OC2 — higher, 1
- Oc1cccc2cnccc12 — higher, 1.35
- CCOC(=O)C1CC(C)=C(C)CC1C(=O)O (stereo not given) — higher, 1.5
- CC(=O)Nc1cccc(-n2c(=O)n(C3CC3)c(=O)c3c(Nc4ccc(I)cc4F)n(C)c(=O)c(C)c32)c1 — lower, -0.9
- CSc1cccc(NC(=O)Nc2ccccc2C(N)=O)c1 — higher, 0.9
- Cc1c(-c2ccccc2)n(O)[n+]([O-])c1-c1ccccc1 — higher, 0.7
- COc1cc(C(O)c2nc3ccccc3s2)cc(OC)c1OC (stereo not given) — lower, -0.9
- CCOC(=O)/C=C/c1ccc(C(=O)OCC)[nH]1 — lower, -1.5
- O=C1CCCC1C(=O)Nc1ccc2ccccc2c1 (stereo not given) — lower, 0
- COC(=O)C1(C)Cc2cc(OC(C)=O)c(OC(C)=O)cc2N1 (stereo not given) — lower, 0.15
- CN1CCN(C(=O)/C=C/c2ccc([N+](=O)[O-])o2)CC1 — the same, 0.65
- N#C/C(=C\c1cccnc1)c1ccc(Br)cc1 — lower, -1
- Clc1nc2nc3n(c2nc1Cl)CCC3 — lower, 0
- CN(C)CC1C2CCC(C2)C1O (stereo not given) — lower, 0.4
- CCOC(=O)Nc1ccc2nc(Sc3ccc(Cl)cc3)sc2c1 — lower, 0.55
- COc1cc(C2NC(=O)C(C#N)=C(Nc3cccc(C)c3)S2)ccc1O (stereo not given) — higher, 1.6
- Cc1ccc(Nc2ccc(N)cc2S(=O)(=O)O)cc1 — lower, 0.1
- N=C1CCC(=N)c2c1c(O)c1ccccc1c2O — lower, 0
- CC(=O)Nc1ccc(OC(=O)Oc2ccc(NC(C)=O)cc2)cc1 — lower, 0.05
- CCCCn1cnc2c(=S)nc(N)[nH]c21 — lower, -0.25
- COc1ccc2c3c1OC1CC(O)C=CC31CCN(C)C2 (stereo not given) — higher, 1.1
- Cc1cc(NC(=O)NC(=O)c2ccccc2NC(=O)C(C)N)ccc1Oc1ncc(Br)cn1 (stereo not given) — higher, 4.35
- O=C(Nc1cccc(-c2ccccc2)c1)N1CCN(C(=O)Nc2cccc(-c3ccccc3)c2)CC1 — higher, 1.1
- CC#CC#Cc1cccc(=O)o1 — lower, -1.7
- CC(O)(c1ccccc1)C(c1ccccc1)C1CCCCN1 (stereo not given) — higher, 1.3
- O=c1[nH]cc(Cl)cc1Cl — higher, 0.85
- CC(C)C(=O)Nc1cccnc1 — lower, -1.45
- CC(=O)c1cc(O)c2ccccc2c1O — lower, 0.45
- CC(=O)Nc1ccc(S(=O)(=O)N=S(C)C)cc1 — higher, 1.8
- NC(=O)c1nnsc1-c1ccc(-c2snnc2C(N)=O)cc1 — lower, 0.15
- CC1(C)N=C(N)NC(=NCCCOc2ccc([N+](=O)[O-])cc2)N1 — lower, 0.35
- C=C(C)CN1C(=O)C(C)S/C1=N/N=C1/SCC(=O)N1C (stereo not given) — higher, 1.2
- CCOC(=O)CSc1nc2nc(Cl)c(Cl)nc2[nH]1 — lower, -0.2
- Oc1ccc2ccccc2c1N=Nc1nccs1 — lower, -2.1
- COC(=O)Nc1csc2c1NC(=O)CCCC2 — lower, 0.45
- CCc1ccc(CCN2C(=O)c3ccccc3C2=O)nc1 — lower, 0.1
- Clc1ccc(Oc2nc3c(Cl)cccc3s2)cc1Cl — lower, -0.35
- Nc1n[nH]c(CO)n1 — higher, 1.4
- Cc1cc(C)n2c(C)nnc2c1 — higher, 1.85
- CC(=O)NC1=C/C(=C\[N+](=O)[O-])C=C1O — lower, -0.9
- COc1c(/C=N/NC(N)=O)c(OC)c(OC)c2c1CCO2 — higher, 1.45
- Nc1ccc(C(=O)C(=O)c2ccc(N)cc2)cc1 — lower, -0.25
- CCOC(=O)/C(C#N)=C/c1c[nH]c2ccccc12 — lower, -0.4
- COc1cccc(/C=C2\CCc3ccccc3C2=O)c1 — lower, -0.1
- O=C(Nc1ccc(Br)c2ccccc12)c1ccc2ccccc2c1O — higher, 0.75
- CC(=O)OCCN1c2ccccc2Sc2cnccc21 — higher, 0.85
- NS(=O)(=O)c1ccc(N=Nc2ccc(=O)[nH]c2O)cc1 — higher, 1.15
- O=C1OCC/C1=C\OCCCO/C=C1\CCOC1=O — lower, -0.7
- Cc1ccc(NC(=O)Nc2nc3ccccc3s2)cc1NC(=O)Nc1nc2ccccc2s1 — higher, 0.75
- COc1cc(-c2ccc(NC(=O)NC3CC3)c(OC)c2)ccc1NC(=O)NC1CC1 — lower, 0.2
- CC1=C(C(N)=O)S(=O)(=O)c2ccccc21 — higher, 0.7
- Nc1ccc(-c2nc3nc(N)nc(N)c3nc2-c2ccc(N)cc2)cc1 — lower, -0.1
- CC(C)(C)n1nc(C2CC2)cc1NC(=O)Nc1ccccc1 — lower, 0.25
- O=C(O)c1cc2ccccc2cc1Nc1ccccc1 — higher, 0.75
- CC1(C)N=C(N)N=C(N)N1c1cccc(CN)c1 — lower, 0.1
- CCCCCC(=O)N1CCCC1 — lower, -0.1
- CC(C)(NC(=O)c1cc(Cl)c2ccccc2c1O)C(=O)O — lower, -0.5
- CS(=O)(=O)c1ccc(C(=O)Nc2ccc(Cl)c(-c3ccccn3)c2)c(Cl)c1 — lower, 0.3
- COc1ccc(N=Cc2c(O)ccc3c2oc2cc(Cl)c(O)c(Cl)c23)cc1 — lower, 0.55
- CC(=O)NS(=O)(=O)c1ccc2sc(C)nc2c1 — lower, 0.15
- CC(C)C[C@H](NC(=O)[C@H](Cc1ccccc1)NC(=O)c1cnccn1)B(O)O — lower, -0.85
- C=CCNC(=S)Nc1c(N)n(C)c(=O)n(C)c1=O — higher, 0.75
- Oc1ccccc1Nc1ccccn1 — higher, 1.75
- N=c1ccn2c(n1)O[C@H]1[C@H](O)[C@@H](CO)O[C@H]12 — lower, -1.6
- Brc1ccc(-c2csc(Nc3nc(-c4ccc(Br)cc4)cs3)n2)cc1 — higher, 1
- O=c1[nH]cc(F)c(=O)[nH]1 — higher, 0.75
- Cc1nc2ccccc2c(N)c1-c1cc(C)c2c(C)nc3ccccc3c2n1 — higher, 1.75
- CCCCC(=O)OCC(=O)[C@]1(O)Cc2c(O)c3c(c(O)c2[C@@H](O[C@H]2C[C@H](NC(=O)C(F)(F)F)[C@H](O)[C@H](C)O2)C1)C(=O)c1c(OC)cccc1C3=O — lower, -0.8
- COc1ccc2c3c([nH]c2c1)[C@H]1C[C@H]2[C@H](C[C@@H](O)[C@H](OC)[C@H]2CO)CN1CC3 — lower, -0.05
- O=C1OC(Cc2ccccc2)C(c2ccccc2)C1=O (stereo not given) — higher, 0.75
- O=C(Nc1ccc2ccccc2c1)c1cccc(F)c1 — lower, -0.45
- CCNC(=O)Oc1ccc[nH]c1=O — lower, -0.25
- O=C(Nc1ccc(O)c(C(=O)O)c1)Oc1ccccc1 — higher, 0.9
- COc1cccc(-c2nnc(N)o2)c1 — the same, 0.65
- C[C@H](CCC(=O)O)[C@H]1CC[C@@]2(C)[C@@H]3C(=O)C[C@H]4C(C)(C)[C@@H](O)CC[C@]4(C)[C@H]3C(=O)C[C@]12C — lower, -0.35
- CCOC(=O)c1c(C)c(C(=O)OCC)n(C)c1C — higher, 1.8
- O=S(=O)(c1ccc2c(c1)CCCN2)N1CCC[C@H]2CCCC[C@@H]21 — lower, 0.2
- CCOC(CNCc1cc(C)c2[nH]c3ccccc3c2c1C)OCC — lower, 0.05
- [O-]/[N+](=C\c1ccccc1)CC1(O)CCCCC1 — lower, -0.85
- CCCOc1nc2c(c(=O)n(C)c(=O)n2C)n1C — higher, 1.2
- OCc1ncccc1O — lower, -0.75
- Nc1nnc(-c2cccnc2)s1 — lower, -0.3
- C#CC1(O)CCC2C3CCC4=Cc5oncc5CC4(C)C3CCC21C (stereo not given) — lower, 0.1
- Cc1ccc(C(N)=Nc2ccccc2)cc1 — lower, -0.05
